Drawing on ChEMBL document CHEMBL1142529 (2008), this text covers MIC for one compound.

Converted amounts (≈) assume the structure as drawn.

The test system of this assay is Staphylococcus aureus. Briefly: microbe, parasite or virus in culture. The following applies: 1199B, 18 h.

With `O=C(O)c1cn(C2CC2)c2cc(N3CCNCC3)c(F)cc2c1=O` [CIPROFLOXACIN], the MIC stood at 8 µg/mL (≈ 24.1 µM).
